Where a name gives a salt, the structure may show the parent alone.
Tests used:
[1] = target: T1, Leishmania mexicana inositol phosphorylceramide synthase (LmxIPCS) (Leishmania mexicana, UniProt E9B725)
T1 construct: gene LMXM_34_4990

By UniProt entry, the sequences of proteins in these tests, tags left out. Where a name states a change or a piece, a line headed by the entry shows the natural chain unless it says otherwise.
UniProt E9AFX2: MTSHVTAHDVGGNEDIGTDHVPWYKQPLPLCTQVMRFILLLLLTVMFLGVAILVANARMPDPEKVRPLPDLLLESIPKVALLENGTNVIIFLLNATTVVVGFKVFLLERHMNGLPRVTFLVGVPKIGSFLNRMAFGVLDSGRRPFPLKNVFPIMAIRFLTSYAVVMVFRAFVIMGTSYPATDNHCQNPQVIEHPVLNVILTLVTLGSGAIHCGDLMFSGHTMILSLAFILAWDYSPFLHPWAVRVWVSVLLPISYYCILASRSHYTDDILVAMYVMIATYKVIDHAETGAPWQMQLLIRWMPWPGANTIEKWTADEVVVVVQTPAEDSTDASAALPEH

[2] = target: T2, Leishmania major inositol phosphorylceramide synthase (LmjIPCS) (Leishmania major, UniProt E9AFX2)
T2 construct: gene IPCS

CN1CCC[C@@H]1CCO[C@](C)(c1ccccc1)c1ccc(Cl)cc1 [clemastine fumarate]
dose-response of IPCS activity in purified proteoliposomes, C6-NBD-ceramide turn [1]: Dose–response assays revealed that LmxIPCS was more sensitive to clemastine fumarate than LmjIPCS (Figure 1C). | dose-response of IPCS activity in purified proteoliposomes, C6-NBD-ceramide turn [2]: with efficacy in the high micromolar range for both orthologues
